Record: PubChem BioAssay AID602203 (INSERM, 2012)
Here is one part, drawn at random, of 999 reagents. Of all reagents, 85 (8.5%) are marked active. 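Unclear how single-siRNA scores of -1, 0 or +1 give the printed -4 to 4 range; calls lie near -3 or 3 and beyond.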 Entries without a mark were called inactive. Reagent sequences are not shown. Not stated in the record: the amount of reagent, the time to read-out, the dose of the treatment.

Test: 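Confirming genes that raise or lower cisplatin-induced death in A549 cells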 (follow-up of hits)
Cells: human A549 lung cancer cells
Knock-down reagent: siRNA pair against human genes
Conditions: cisplatin at a dose killing half of control-siRNA cells, given 48 h after transfection
Measurement: 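Cisplatin at a dose killing 50% of control cells, 48 h post-transfection; each siRNA +1 protective, -1 sensitizing, 0 if toxic (LDH) or antiproliferative (WST-1); per-gene sum and mean death change versus control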
Reading the numbers: summed siRNA score for cisplatin death: higher = more siRNAs reduced cisplatin-induced cell death; change in cisplatin death versus control: higher = fewer cells died than in control
Units: change in cisplatin death versus control in percentage points
Hit rule: In these data the active calls have summed siRNA score for cisplatin death at about -3 or lower, or at about 3 or higher

After knock-down of ZRANB1, the record shows summed siRNA score for cisplatin death 1. Against PMM2, the values are summed siRNA score for cisplatin death -1. Against LOC133790, the entry reads summed siRNA score for cisplatin death 0. Silencing of LOC440943 resulted in: summed siRNA score for cisplatin death 0. MSH6 showed summed siRNA score for cisplatin death 1. For TXK, the entry reads summed siRNA score for cisplatin death -2.

AREG gave summed siRNA score for cisplatin death 0. With knock-down of NAMPT, the record shows summed siRNA score for cisplatin death -1. After knock-down of FAM89B the results were summed siRNA score for cisplatin death -2. Silencing of AFG3L2 came out at: summed siRNA score for cisplatin death -2. Against LOC390342 the deposit lists summed siRNA score for cisplatin death 2. Silencing of OR52L1 came out at: summed siRNA score for cisplatin death 0.

For FLJ41327 (retired record), the values are summed siRNA score for cisplatin death 1. DUX4L8 scored summed siRNA score for cisplatin death 0. For KIZ the deposit lists summed siRNA score for cisplatin death -3 (active); change in cisplatin death versus control -8.21. With knock-down of ADIPOR2, the screen gave summed siRNA score for cisplatin death -1. With knock-down of LOC391345 the results were summed siRNA score for cisplatin death 1. PIK3C2B scored summed siRNA score for cisplatin death -1.

For BTN2A3P, the values are summed siRNA score for cisplatin death -1. Against USP18 the deposit lists summed siRNA score for cisplatin death 0. For LOC440731, the entry reads summed siRNA score for cisplatin death 1. After knock-down of RPP38, the record shows summed siRNA score for cisplatin death 0. With knock-down of ITIH6 the results were summed siRNA score for cisplatin death 0. After knock-down of TRIM33 the results were summed siRNA score for cisplatin death 1.

TUSC2 scored summed siRNA score for cisplatin death 0. For DNM1DN11-7 the deposit lists summed siRNA score for cisplatin death 0. With knock-down of LOC401676 (retired record), the screen gave summed siRNA score for cisplatin death -1. Depletion of PLA1A came out at: summed siRNA score for cisplatin death -1. Knock-down of RSL1D1 came out at: summed siRNA score for cisplatin death 1.

Part of the list above, set out differently:
target gene	summed siRNA score for cisplatin death	change in cisplatin death versus control
LOC391345	1	
PIK3C2B	-1	
BTN2A3P	-1	
USP18	0	
LOC440731	1	
RPP38	0	
ITIH6	0	
TRIM33	1	

Continued.
For ENAM, the values are summed siRNA score for cisplatin death 2. Silencing of EDARADD gave: summed siRNA score for cisplatin death 2. For WSB2 the deposit lists summed siRNA score for cisplatin death -4 (active); change in cisplatin death versus control -15.8. Knock-down of SLC2A5 came out at: summed siRNA score for cisplatin death -2. GOLGA2 showed summed siRNA score for cisplatin death -2. With knock-down of LARGE1 the results were summed siRNA score for cisplatin death 0.

LOC392443 scored summed siRNA score for cisplatin death 2. CD34 scored summed siRNA score for cisplatin death -3 (active); change in cisplatin death versus control -6.18. With knock-down of PLTP, the screen gave summed siRNA score for cisplatin death -2. After knock-down of GPR174, the record shows summed siRNA score for cisplatin death 2. Silencing of LRRN2 resulted in: summed siRNA score for cisplatin death 2. Silencing of NBPF14 gave: summed siRNA score for cisplatin death 1.

Against PTGES, the values are summed siRNA score for cisplatin death 1. With knock-down of PNKP, the screen gave summed siRNA score for cisplatin death 1. Against OR2B11 the deposit lists summed siRNA score for cisplatin death -1. Knock-down of TMED1 came out at: summed siRNA score for cisplatin death -3 (active); change in cisplatin death versus control -8.74. Depletion of PDHA1 resulted in: summed siRNA score for cisplatin death -2. IGHV3OR16-17 showed summed siRNA score for cisplatin death -2.
